Source: PMC10889563, “The Multienzyme Complex Nature of Dehydroepiandrosterone Sulfate Biosynthesis” (International Journal of Molecular Sciences, 2024)
No constants are given. Whether binding was seen depends on the method and setting.

Tests used:
[1] = molecular target: T1, sulfotransferase SULT1E1 (human) (UniProt P49888); assay: SPR; SULT1E1 or SULT2A1 covalently immobilised on CM5 chip via amino groups; CYP17A1full, CYP17A1tr or CYB5A injected at 50 to 5000 nM in HBS-EP+ (10 mM HEPES, 150 mM NaCl, 3 mM EDTA, 0.05% P20, pH 7.4), 25 °C; no PAPS; 1:1 Langmuir model; both purified
T1 sequence: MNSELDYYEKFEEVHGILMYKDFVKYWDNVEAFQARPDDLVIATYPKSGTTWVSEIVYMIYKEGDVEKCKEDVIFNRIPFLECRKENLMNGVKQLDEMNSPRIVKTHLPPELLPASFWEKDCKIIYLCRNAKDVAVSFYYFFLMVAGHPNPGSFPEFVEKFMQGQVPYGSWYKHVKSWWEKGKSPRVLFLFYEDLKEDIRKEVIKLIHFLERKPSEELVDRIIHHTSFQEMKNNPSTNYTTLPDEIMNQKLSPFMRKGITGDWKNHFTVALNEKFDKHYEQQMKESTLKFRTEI

[2] = molecular target: T2, sulfotransferase SULT2A1 (human) (UniProt Q06520); assay: as above
T2 sequence: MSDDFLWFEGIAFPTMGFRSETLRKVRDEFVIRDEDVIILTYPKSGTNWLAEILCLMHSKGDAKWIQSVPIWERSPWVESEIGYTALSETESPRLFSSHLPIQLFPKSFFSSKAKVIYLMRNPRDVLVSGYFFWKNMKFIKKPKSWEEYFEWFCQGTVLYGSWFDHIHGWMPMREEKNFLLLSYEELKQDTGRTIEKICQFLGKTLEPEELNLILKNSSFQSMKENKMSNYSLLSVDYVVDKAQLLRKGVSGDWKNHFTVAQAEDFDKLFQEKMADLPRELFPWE

N-terminal hydrophobic domain-truncated CYP17A1 (CYP17A1tr) (domain or fragment)
binding [1]: no binding (tested: 50 to 5000 nM) | binding [2]: no binding (tested: 50 to 5000 nM)
